The target of test [1] is RELA (human (endogenous in TFE301-1)), Q04206. As to the kind of experiment: affinity purification with mass spectrometry; IP of RELA from TFE301-1 cells with an anti-RELA antibody, compared with an IgG control; MS on a Q-Exactive. Particulars: remark: other sources report otherwise.
Test [2] has as its target RELA (human (endogenous in TFE301-1)) (UniProt Q04206). The test is described as above.

By UniProt entry, the sequences of proteins in these tests, tags left out.
UniProt Q04206: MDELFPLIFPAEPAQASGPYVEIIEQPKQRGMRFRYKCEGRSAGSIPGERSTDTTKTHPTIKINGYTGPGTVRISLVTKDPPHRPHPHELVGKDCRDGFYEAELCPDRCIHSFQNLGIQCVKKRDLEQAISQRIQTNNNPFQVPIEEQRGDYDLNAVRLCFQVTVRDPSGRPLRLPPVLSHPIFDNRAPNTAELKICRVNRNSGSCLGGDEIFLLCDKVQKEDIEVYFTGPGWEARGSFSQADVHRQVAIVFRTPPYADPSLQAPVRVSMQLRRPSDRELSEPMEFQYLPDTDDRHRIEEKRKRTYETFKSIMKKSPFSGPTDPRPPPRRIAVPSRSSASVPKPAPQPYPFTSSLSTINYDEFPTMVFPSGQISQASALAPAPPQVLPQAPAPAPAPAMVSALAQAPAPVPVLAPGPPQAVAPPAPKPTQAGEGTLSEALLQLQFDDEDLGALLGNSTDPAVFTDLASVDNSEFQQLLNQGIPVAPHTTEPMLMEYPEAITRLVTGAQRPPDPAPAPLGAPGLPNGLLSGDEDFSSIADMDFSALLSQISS

No constants are given. Whether binding was seen depends on the method and setting. In cells and extracts the contact can be indirect. These calls come from enrichment with a bait or labelling near it, and not all partners need be listed.

B1: STUB1, Q9UNE7 1-303 (enzyme)
chain: MKGKEEKEGGARLGAGGGSPEKSPSAQELKEQGNRLFVGRKYPEAAACYGRAITRNPLVAVYYTNRALCYLKMQQHEQALADCRRALELDGQSVKAHFFLGQCQLEMESYDEAIANLQRAYSLAKEQRLNFGDDIPSALRIAKKKRWNSIEERRIHQESELHSYLSRLIAAERERELEECQRNHEGDEDDSHVRAQQACIEAKHDKYMADMDELFSQVDEKRKKRDIPDYLCGKISFELMREPCITPSGITYDRKDIEEHLQRVGHFDPVTRSPLTQEQLIPNLAMKEVIDAFISENGWVEDY
As to B1, the binding entry in test [1] is “binds”.

B2: DZIP3 (enzyme, UniProt Q86Y13 1-1208)
chain: MDSLPDEFFVRHPAVEDQRKEETENKLEKSSGQLNKQENDIPTDLVPVNLLLEVKKLLNAINTLPKGVVPHIKKFLQEDFSFQTMQREVAANSQNGEEIVPALTLRFLITQLEAALRNIQAGNYTAHQINIGYYLTLLFLYGVALTERGKKEDYTEAENKFLVMKMMIQENEICENFMSLVYFGRGLLRCAQKRYNGGLLEFHKSLQEIGDKNDHWFDIDPTEDEDLPTTFKDLLNNFIKTTESNIMKQTICSYLDCERSCEADILKNTSYKGFFQLMCSKSCCVYFHKICWKKFKNLKYPGENDQSFSGKKCLKEGCTGDMVRMLQCDVPGIVKILFEVVRKDEYITIENLGASYRKLISLKITDTDIRPKISLKFNTKDEMPIFKLDYNYFYHLLHIIIISGTDIVRQIFDEAMPPPLLKKELLIHKNVLESYYNHLWTNHPLGGSWHLLYPPNKELPQSKQFDLCLLLALIKHLNVFPAPKKGWNMEPPSSDISKSADILRLCKYRDILLSEILMNGLTESQFNSIWKKVSDILLRLGMMQEDIDKVKENPIENISLDYHQLSVYLGIPVPEIIQRMLSCYQQGIALQSITGSQRIEIEELQNEEEELSPPLMEYNINVKSHPEIQFAEINKDGTSIPSESSTESLKDLQEVKSKQRKKKKTKNKKNKDSKEDQVPYVVEKEEQLRKEQANPHSVSRLIKDDASDVQEDSAMEDKFYSLDELHILDMIEQGSAGKVTTDYGETEKERLARQRQLYKLHYQCEDFKRQLRTVTFRWQENQMQIKKKDKIIASLNQQVAFGINKVSKLQRQIHAKDNEIKNLKEQLSMKRSQWEMEKHNLESTMKTYVSKLNAETSRALTAEVYFLQCRRDFGLLHLEQTEKECLNQLARVTHMAASNLESLQLKAAVDSWNAIVADVRNKIAFLRTQYNEQINKVKQGFALSTLPPVQLPPPPPSPEILMQQFLGRPLVKESFFRPILTVPQMPAVCPGVVSATGQPRAPLMTGIAWALPAPVGDAVPPSAGLRSDPSIMNWERITDRLKTAFPQQTRKELTDFLRKLKDAYGKSLSELTFDEIVCKISQFIDPKKSQSQGKSVSNVNCVSPSHSPSQPDAAQPPKPAWRPLTSQGPATWEGASNPDEEEEEEEPCVICHENLSPENLSVLPCAHKFHAQCIRPWLMQQGTCPTCRLHVLLPEEFPGHPSRQLPKI
Take B2: the binding entry in test [2] is on record as “binds”.

For the origin of these results see PMC12767095.
